Laboratory results taken from PMC5974125.
These are yes or no findings as the source states them, for the method shown. Binding seen in cells or lysates may run through a third protein. Some binding calls cover weakened binding; strength is not graded here.

By UniProt entry, the sequences of proteins in these tests, tags left out.
UniProt Q14457: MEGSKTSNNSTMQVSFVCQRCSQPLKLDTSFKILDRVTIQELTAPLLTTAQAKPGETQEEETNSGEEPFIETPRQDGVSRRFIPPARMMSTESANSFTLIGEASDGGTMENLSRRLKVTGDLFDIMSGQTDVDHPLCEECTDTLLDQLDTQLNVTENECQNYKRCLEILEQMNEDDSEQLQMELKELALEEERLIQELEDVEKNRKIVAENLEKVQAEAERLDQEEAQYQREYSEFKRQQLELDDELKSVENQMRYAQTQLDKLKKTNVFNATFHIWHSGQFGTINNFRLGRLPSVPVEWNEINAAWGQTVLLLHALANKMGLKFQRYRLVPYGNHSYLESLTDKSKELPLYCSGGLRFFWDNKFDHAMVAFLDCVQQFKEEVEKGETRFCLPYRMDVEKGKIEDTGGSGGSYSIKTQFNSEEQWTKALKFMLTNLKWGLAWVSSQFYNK
UniProt P10415: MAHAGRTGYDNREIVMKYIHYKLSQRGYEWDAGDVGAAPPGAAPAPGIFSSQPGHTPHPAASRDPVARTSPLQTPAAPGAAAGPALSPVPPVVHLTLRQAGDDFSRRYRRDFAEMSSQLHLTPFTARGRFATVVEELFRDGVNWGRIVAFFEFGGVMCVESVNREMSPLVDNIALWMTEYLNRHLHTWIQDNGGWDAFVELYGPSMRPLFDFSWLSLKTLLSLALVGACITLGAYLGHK

Legend:
[1] = molecular target: Beclin-1 (human (endogenous in AGS and SNU-638)) (UniProt Q14457); assay: co-IP; endogenous proteins in AGS and SNU-638 lysates; cells treated with DMSO (control) or DSGOST (500 μg/mL) for 16 and 24 h; anti-Bcl-2 or anti-Beclin-1 with lysate at 4 °C for 16 h, protein A/G PLUS agarose; 50 mM Tris-HCl pH 7.5, 250 mM NaCl, 5 mM EDTA, 0.5% NP-40; western blotting
[2] = molecular target: Bcl-2 (human (endogenous in AGS and SNU-638)) (UniProt P10415); assay: as above

Which binding [1] does the source give for Bcl-2 (from UniProt P10415 1-239) here?
The binding was “binds”.

Which binding [2] does the source give for Beclin-1 (from UniProt Q14457 1-450) here?
The binding was “binds”.
